Source: PubChem BioAssay AID493014 (National Center for Advancing Translational Sciences (NCATS), 2011)
The list shows a part of the results. Further columns of the screen follow, without active or inactive calls. The list favours compounds with an active or inconclusive main result. Words in brackets tell the shape of the fitted curve; partial curves, single points and poor fits give uncertain potencies.

Assay: qHTS Assay to Find Inhibitors of Chronic Active B-Cell Receptor Signaling
Conditions: ABC-DLBCL IkBa-CBG/CBR reporter, luminescence ratio (green luciferase fused to IkBa over red control in TMD8 lymphoma cells), 4 h
Procedure, shortened: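 Cell line TMD8 (human ABC DLBCL), stably expressing tet-inducible CBG68-IkBa fusion and CBR; IMDM/0.5% FBS; cpd up to 46 uM; dox induction, 4 h, 37C/5% CO2; dual luminescence; green/red ratio; MG132 control.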

[1] = measured here: CBR red luminescence, cell number
[2] = measured here: IkBa-CBG green luminescence

SMILES	AC50 [1]	AC50 [2]
O=C(Nc1ccc(NC(=O)c2ccco2)c(Cl)c1)c1ccccc1	0.708 µM [rising, full curve, poor fit]	
O=C(NC1CCN(Cc2ccccc2)CC1)c1cn(-c2ccccc2)nc1-c1cccnc1	11.6 µM [rising, partial curve, poor fit]	
O=C(Nn1c(COc2ccccc2)nc2ccccc2c1=O)C(Cl)(Cl)Cl	14.1 µM [falling, partial curve]	35.5 µM [falling, single point]
CNc1cc(N2CCN(S(=O)(=O)N(C)C)CC2)ccc1[N+](=O)[O-]	35.5 µM [rising, partial curve, poor fit]	
Cc1oc(-c2ccc(Cl)cc2)nc1CN1CCCC(C(=O)N2CCOCC2)C1 (stereo not drawn)	35.5 µM [falling, single point]	
O=C(Cc1ccc(-n2c(=O)c3ccccc3n(Cc3ccc(F)cc3)c2=O)cc1)NCC1CCCO1 (stereo not drawn)		4.61 µM [falling, partial curve]
O=C(CNc1ccccc1)Nc1ccc(F)cc1	12.6 µM [falling, partial curve, poor fit]	
CC(C)(C)NC(=O)C(c1ccc(F)cc1)N(CCc1ccccc1)C(=O)c1ccn[nH]1 (stereo not drawn)	8.91 µM [falling, partial curve]	11.2 µM [rising, partial curve]
Cc1ccc(-c2c(C(=O)N/N=C/c3c[nH]c4ccccc34)nnn2-c2nonc2N)cc1	22.4 µM [falling, single point]	
CCOC(=O)C1=C(C)NC(C)=C(C(=O)OCC)C1C(=O)OCC(=O)NCc1ccccc1OC		23.1 µM [falling, partial curve, poor fit]
Cc1cccc(-c2c3c(=O)n(C)c(=O)n(C)c3cn2-c2ccccc2O)c1	35.5 µM [falling, single point]	
CN1CCN(CC(=O)c2cc(C(C)(C)C)c(O)c(C(C)(C)C)c2)CC1	35.5 µM [falling, single point]	
CCCn1c2ccccc2c2nnc(SCC(=O)Nc3ncccn3)nc21	6.51 µM [falling, single point]	
COc1cccc(NC(=S)/C(=C(\[O-])c2cc(C)n(-c3ccccc3F)c2C)[n+]2ccc(N(C)C)cc2)c1	8.91 µM [falling, partial curve, poor fit]	
Cc1ccc(-c2onc3ccc(C(=O)O)cc23)cc1	10 µM [falling, partial curve, poor fit]	
CCn1c(CN2c3ccccc3Sc3ccccc32)n[nH]c1=S	35.5 µM [falling, single point]	

Copied from the list.
AC50 [2] with O=C(Cc1ccc(-n2c(=O)c3ccccc3n(Cc3ccc(F)cc3)c2=O)cc1)NCC1CCCO1 (stereo not drawn) reads 4.61 µM [falling, partial curve]
AC50 [1] with CNc1cc(N2CCN(S(=O)(=O)N(C)C)CC2)ccc1[N+](=O)[O-] reads 35.5 µM [rising, partial curve, poor fit]

The results go on:

SMILES	AC50 [1]	AC50 [2]
CN(CC(=O)Nc1ccccc1Cl)C(=O)CSc1nncn1C	29.1 µM [rising, partial curve, poor fit]	
CN1CCc2nc(SCCOc3ccccc3)c(C#N)cc2C1		3.26 µM [rising, full curve]
O=C(O)Cc1csc(NC(=O)c2ccco2)n1	0.731 µM [rising, full curve, poor fit]	
CCN(c1ccc(NS(=O)(=O)c2cc(Cl)ccc2Cl)cc1)C(C)C	32.6 µM [falling, single point]	
COc1ccc(N=CC2=C(O)c3ccccc3C2=O)cc1	16.4 µM [falling, single point]	
COc1ccc(C(=O)/C=C/C(=O)N(CC(=O)NC2CCCCC2)Cc2cccs2)c(O)c1	10 µM [rising, partial curve, poor fit]	
CC(C)OCCCn1c(=S)[nH]c2ccc(N3CCOCC3)cc2c1=O	0.731 µM [falling, full curve, poor fit]	
N#CCSc1nnc(COc2cccc3ccccc23)n1-c1ccccc1	25.1 µM [falling, single point]	
Cc1ccc(-c2nc(CS(=O)CC(=O)NCCN3CCCC3)c(C)o2)cc1 (stereo not drawn)	32.6 µM [rising, single point]	
COC(=O)CSc1nc(-c2cccs2)ccc1C#N	1 µM [rising, full curve]	
Cn1nccc1C(=O)N1CCCC(C(=O)c2cccc3ccccc23)C1 (stereo not drawn)	5.62 µM [rising, partial curve, poor fit]	
CCOC(=O)C1=C(COC(=O)/C=C/c2cccc(OC)c2)NC(=O)NC1C (stereo not drawn)	35.5 µM [falling, single point]	
Cn1c(SCC(=O)N2CCCc3ccccc32)nc2ccccc2c1=O	2.31 µM [falling, full curve]	
C(=N\n1cnnc1)/c1ccc(N2CCOCC2)s1	8.91 µM [rising, partial curve, poor fit]	
Cc1nc(Cl)c(C(=O)Nc2cccc(F)c2)c(C)c1Cl	1.26 µM [rising, partial curve, poor fit]	
